Reference: patent US20160090556A1, “PRODUCTS COMPRISING MALODOR REDUCTION MATERIALS” (The Procter & Gamble Company, priority 2014, published 2016)
Read-outs that look alike come from different tables or passages of the source.

Experiment: Melamine formaldehyde PMC leakage
Conditions: for Comment Code: Melamine formaldehyde PMC leakage: code letter J
[1] = class code letter within Comment Code

Row | Compound | Melamine formaldehyde PMC leakage (Comment Code J) [1] | Comment Code: Melamine formaldehyde PMC leakage | Melamine formaldehyde PMC leakage (Comment Code J)
1 | CCCCCCCCCCCCCC(=O)OCC [Material 388] | J (Melamine formaldehyde PMC leakage less than or equal to 5%) |  | 
2 | C=CC(O)(CC)CCC=C(C)C (stereo not drawn) [Material 390] | J (Melamine formaldehyde PMC leakage less than or equal to 5%) |  | 
3 | CCCCCCCCCCCC(=O)OCC [Material 391] | J (Melamine formaldehyde PMC leakage less than or equal to 5%) |  | 
4 | CCCCCCCCCC(=O)OCC [Material 397] | J (Melamine formaldehyde PMC leakage less than or equal to 5%) |  | 
5 | CCOC(=O)C1OC1c1ccccc1 (stereo not drawn) [Material 407] | J (Melamine formaldehyde PMC leakage less than or equal to 5%) |  | 
6 | C=CC1(C)CCC(C(C)(C)O)CC1C(=C)C (stereo not drawn) [Material 414] | J (Melamine formaldehyde PMC leakage less than or equal to 5%) |  | 
7 | CCOC(C)OCCc1ccccc1 (stereo not drawn) [Material 415] | J (Melamine formaldehyde PMC leakage less than or equal to 5%) |  | 
8 | CC1=CCC(C=CC(C)C(C)O)C1(C)C (stereo not drawn) [Material 416] | J (Melamine formaldehyde PMC leakage less than or equal to 5%) |  | 
9 | O=CCCC=C1CC2CC1C1CCCC21 (stereo not drawn) [Material 418] | J (Melamine formaldehyde PMC leakage less than or equal to 5%) |  | 
10 | CC1CCOC(c2ccccc2)C1 (stereo not drawn) [Material 420] |  | J (Melamine formaldehyde PMC leakage less than or equal to 5%) | 
11 | CCCCCCCCCCCC(OC)OC [Material 421] | J (Melamine formaldehyde PMC leakage less than or equal to 5%) |  | 
12 | CCCC(=O)OC(C)(C)Cc1ccccc1 [Material 432] | J (Melamine formaldehyde PMC leakage less than or equal to 5%) |  | 
13 | CC(=O)OC1CC2CC1C1CCCC21 (stereo not drawn) [Material 441] | J (Melamine formaldehyde PMC leakage less than or equal to 5%) | J (Melamine formaldehyde PMC leakage less than or equal to 5%) | 
14 | CCCCCCC1C(=O)CCC1C(=O)OC (stereo not drawn) [Material 450] | J (Melamine formaldehyde PMC leakage less than or equal to 5%) |  | 
15 | c1ccc(COCc2ccccc2)cc1 [Material 454] |  | J (Melamine formaldehyde PMC leakage less than or equal to 5%) | 
16 | CCCCOC(=O)c1ccccc1C(=O)OCCCC [Material 455] |  | J (Melamine formaldehyde PMC leakage less than or equal to 5%) | 
17 | c1ccc(CCc2ccccc2)cc1 [Material 457] | J (Melamine formaldehyde PMC leakage less than or equal to 5%) |  | 
18 | CCCCCCC1CCCC(=O)O1 (stereo not drawn) [Material 459] | J (Melamine formaldehyde PMC leakage less than or equal to 5%) |  | 
19 | C=CC1(C)CCC(C(C)C)=CC1C(=C)C (stereo not drawn) [Material 461] | J (Melamine formaldehyde PMC leakage less than or equal to 5%) |  | 
20 | CCCCCCCC1CCCC(=O)O1 (stereo not drawn) [Material 463] | J (Melamine formaldehyde PMC leakage less than or equal to 5%) |  | 
21 | CC1=CC2C(=C(C)CCC2C(C)C)CC1 (stereo not drawn) [Material 465] | J (Melamine formaldehyde PMC leakage less than or equal to 5%) |  | 
22 | CC1=CC2C(=C(C)CCC2C(C)C)CC1 (stereo not drawn) [Material 467] | J (Melamine formaldehyde PMC leakage less than or equal to 5%) |  | 

Row | Compound | Melamine formaldehyde PMC leakage (Comment Code J) [1] | Comment Code: Melamine formaldehyde PMC leakage | Melamine formaldehyde PMC leakage (Comment Code J)
23 | C=CCCCCCCCCO [Material 470] | J (Melamine formaldehyde PMC leakage less than or equal to 5%) |  | 
24 | CCCCCCCCCCOC(=O)CC [Material 471] | J (Melamine formaldehyde PMC leakage less than or equal to 5%) |  | 
25 | CCCCCCCCCC(OCC)OCC [Material 473] | J (Melamine formaldehyde PMC leakage less than or equal to 5%) |  | 
26 | CC=CC(=O)OC(C)C1CCCCC1 (stereo not drawn) [Material 475] | J (Melamine formaldehyde PMC leakage less than or equal to 5%) |  | 
27 | CC(C=O)Cc1ccc(C(C)C)cc1 (stereo not drawn) [Material 478] | J (Melamine formaldehyde PMC leakage less than or equal to 5%) |  | 
28 | C1CCCCCCCCCCCCC1 [Material 479] | J (Melamine formaldehyde PMC leakage less than or equal to 5%) |  | 
29 | O=C1CCCCCCCCCCCCCC1 [Material 480] | J (Melamine formaldehyde PMC leakage less than or equal to 5%) |  | 
30 | CC(=O)OCCC1CCCCC1 [Material 481] |  | J (Melamine formaldehyde PMC leakage less than or equal to 5%) | 
31 | O=C(OC1CCCCC1)c1ccccc1O [Material 482] | J (Melamine formaldehyde PMC leakage less than or equal to 5%) |  | 
32 | CCCC(=O)OC1CC2CC1C1CC=CC21 (stereo not drawn) [Material 484] | J (Melamine formaldehyde PMC leakage less than or equal to 5%) | J (Melamine formaldehyde PMC leakage less than or equal to 5%) | 
33 | O=C1CCCCCCCCCCC(=O)OCCO1 [Material 485] | J (Melamine formaldehyde PMC leakage less than or equal to 5%) |  | 
34 | CC1(C)CCCC2=C1CC(C=O)CC2 (stereo not drawn) [Material 486] | J (Melamine formaldehyde PMC leakage less than or equal to 5%) |  | 
35 | CC(C)C(=O)OC1CC2CC1C1C=CCC21 (stereo not drawn) [Material 487] | J (Melamine formaldehyde PMC leakage less than or equal to 5%) | J (Melamine formaldehyde PMC leakage less than or equal to 5%) | 
36 | C=CC1(C)Cc2occ(C)c2CC1C(=C)C (stereo not drawn) [Material 488] | J (Melamine formaldehyde PMC leakage less than or equal to 5%) | J (Melamine formaldehyde PMC leakage less than or equal to 5%) | 
37 | c1ccc(CCCc2ccccn2)cc1 [Material 497] | J (Melamine formaldehyde PMC leakage less than or equal to 5%) |  | 
38 | CCCCCCCCCCCC#N [Material 498] | J (Melamine formaldehyde PMC leakage less than or equal to 5%) |  | 
39 | O=C1CCCCCCC/C=C/CCCCCCC1 [Material 501] | J (Melamine formaldehyde PMC leakage less than or equal to 5%) | J (Melamine formaldehyde PMC leakage less than or equal to 5%) | 
40 | C=CC(C)(C#N)Cc1ccccc1 (stereo not drawn) [Material 504] |  | J (Melamine formaldehyde PMC leakage less than or equal to 5%) | 
41 | CC(=CC#N)CCc1ccccc1 [Material 505] | J (Melamine formaldehyde PMC leakage less than or equal to 5%) |  | 
42 | CC(C)=CCCC(C)CCOC(=O)Cc1ccccc1 (stereo not drawn) [Material 510] |  | J (Melamine formaldehyde PMC leakage less than or equal to 5%) | 
43 | CC(C)=CCCC(C)CCOC=O (stereo not drawn) [Material 512] |  | J (Melamine formaldehyde PMC leakage less than or equal to 5%) | 
44 | CC(C)=CCCC(C)CCOC(=O)c1ccccc1 (stereo not drawn) [Material 515] |  | J (Melamine formaldehyde PMC leakage less than or equal to 5%) | 

Row | Compound | Melamine formaldehyde PMC leakage (Comment Code J) [1] | Comment Code: Melamine formaldehyde PMC leakage | Melamine formaldehyde PMC leakage (Comment Code J)
45 | CC(C)=CCCC(C)=CC1OCC(C)O1 (stereo not drawn) [Material 519] | J (Melamine formaldehyde PMC leakage less than or equal to 5%) |  | 
46 | COC(C=C(C)CCC=C(C)C)OC [Material 520] | J (Melamine formaldehyde PMC leakage less than or equal to 5%) |  | 
47 | CCOC(C=C(C)CCC=C(C)C)OCC [Material 521] | J (Melamine formaldehyde PMC leakage less than or equal to 5%) |  | 
48 | O=C1CCCCCCC/C=C\CCCCCCO1 [Material 529] | J (Melamine formaldehyde PMC leakage less than or equal to 5%) |  | 
49 | CC/C=C\CCOC(=O)C/C=C\CC [Material 534] | J (Melamine formaldehyde PMC leakage less than or equal to 5%) |  | 
50 | CC/C=C\CCOC(=O)CCCC [Material 535] |  | J (Melamine formaldehyde PMC leakage less than or equal to 5%) | 
51 | C/C=C(\C)C(=O)OCC/C=C\CC [Material 536] |  | J (Melamine formaldehyde PMC leakage less than or equal to 5%) | 
52 | CC/C=C\CCOC(=O)c1ccccc1O [Material 537] | J (Melamine formaldehyde PMC leakage less than or equal to 5%) |  | 
53 | CC/C=C\CCOC(=O)CCC [Material 540] |  | J (Melamine formaldehyde PMC leakage less than or equal to 5%) | 
54 | CC/C=C\CCOC(=O)c1ccccc1 [Material 541] | J (Melamine formaldehyde PMC leakage less than or equal to 5%) |  | 
55 | CC/C=C\CCOC(=O)C(C)CC (stereo not drawn) [Material 544] | J (Melamine formaldehyde PMC leakage less than or equal to 5%) |  | 
56 | CCC(=O)OCC=Cc1ccccc1 [Material 548] | J (Melamine formaldehyde PMC leakage less than or equal to 5%) |  | 
57 | CC(C)C(=O)OCC=Cc1ccccc1 [Material 550] | J (Melamine formaldehyde PMC leakage less than or equal to 5%) |  | 
58 | O=C(C=Cc1ccccc1)OCC=Cc1ccccc1 [Material 552] | J (Melamine formaldehyde PMC leakage less than or equal to 5%) |  | 
59 | CCCCCCCCCCCCCCCCO [Material 558] | J (Melamine formaldehyde PMC leakage less than or equal to 5%) |  | 
60 | C=CCCC(=O)/C=C/C1C(C)=CCCC1(C)C (stereo not drawn) [Material 559] | J (Melamine formaldehyde PMC leakage less than or equal to 5%) |  | 
61 | CC1=C(CCC(C)C=O)C(C)(C)CCC1 (stereo not drawn) [Material 560] | J (Melamine formaldehyde PMC leakage less than or equal to 5%) |  | 
62 | CC1(C)CCCC2(C)C1CCC1(C)OCCC12 (stereo not drawn) [Material 561] |  |  | J (Melamine formaldehyde PMC leakage less than or equal to 5%)
63 | O=C1CCCCCCCCCCOCCCCO1 [Material 562] |  |  | J (Melamine formaldehyde PMC leakage less than or equal to 5%)
64 | CC(=O)c1cc(C(C)(C)C)cc2c1CCC2(C)C [Material 563] |  |  | J (Melamine formaldehyde PMC leakage less than or equal to 5%)
